Assay [1] addresses Activin B (UniProt P09529). The assay is described as follows: Octet BLI, IgG format.
Assay [2] addresses Activin B (UniProt P09529). The assay can be described thus: Octet BLI, IgG, avid; binder with a poor fit to a 1:1 model. (In general: Biolayer interferometry detects binding as a change in optical thickness at a sensor tip.)

Sequences of proteins named here, by UniProt entry; tags and fusion partners are left off. Residues count along the entry.
UniProt P09529, residues 293-407: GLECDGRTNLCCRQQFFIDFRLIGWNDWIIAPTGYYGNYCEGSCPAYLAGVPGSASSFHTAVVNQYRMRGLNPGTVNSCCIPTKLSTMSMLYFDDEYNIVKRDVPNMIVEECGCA

Substitutions are numbered along the chain they refer to. Results are given in words; binding and its absence hold for the method and conditions named. Some results given as binding are weak or reduced against the parent protein; the word gives no strength.

B1: anti-Activin A antibody Clone F (IgG) (antibody, V domains shown)
VH: QVQLVQSGAEVKKPGASVKVSCKASGYTFTGYHIHWVRQVPGQGLEWMGVISAYSGDTNYAQKLQGRVTMTTDTSTSTAYMELRSLRSDDTAVYYCARARDIAALGLGAFDYWGQGTLVTVSS
VL: EIVLTQSPATLSVSPGERATLSCRASQSVSSNLAWYQQKPGQAPRLLIYGASDRATGIPARFSGSGSGTEFTLTISSLQSEDFAVYYCIQYSNYPRTFGGGTKVEIKR
For B1, in the assay with Activin B [1], the binding entry was “binds”.

B2: anti-Activin A antibody Clone L (IgG) (antibody, V domains shown)
VH: QVQLQESGPGLVKPSETLSLTCAVSGYSISSGYYWGWIRQPPGKGLEWIGSIYHSGSTYYNPSLKSRVTISVDTSKNQFSLKLSSVTAADTAVYYCAREAGSGYWYLSVYGMDVWGQGTTVTVSS
VL: B1 VL with D53T, I89Q, Y91S, S92D, N93D, Y94W, R96W
Turning to B2, in the assay with Activin B [1], the binding result is “binds”.

B3: anti-Activin A antibody Clone P (IgG) (antibody, V domains shown)
VH: QVQLVQSGAEVKKPGSSVKVSCKASGGTFDDYAISWVRQAPGQGLEWMGGIIPRFGIANYAQKFQGRVTITADESTSTAYMELSSLRSEDTAVYYCARPPSSGSDWGQGTLVTVSS
VL: DIQMTQSPSSVSASVGDRVTITCRASQGIDSWLAWYQQKPGKAPKLLIYAASSLQSGVPSRFSGSGSGTDFTLTISSLQPEDFATYYCQQVHSFPITFGGGTKVEIKR
Turning to B3, the binding result with Activin B [2] is “binds”.

Values taken from patent US20260265358A1.
